# Drug screen on melanoma cell lines: cell count

From a melanoma drug combination screen (doi:10.1371/journal.pone.0140310); values rounded.

Drugs:
vincristine (0.0005 µM): CC[C@]1(O)C[C@H]2CN(CCc3c([nH]c4ccccc34)[C@@](C(=O)OC)(c3cc4c(cc3OC)N(C=O)[C@H]3[C@@](O)(C(=O)OC)[C@H](OC(C)=O)[C@]5(CC)C=CCN6CC[C@]43[C@@H]65)C2)C1
erlotinib (4 µM): C#Cc1cccc(Nc2ncnc3cc(OCCOC)c(OCCOC)cc23)c1
dasatinib (0.02 µM): Cc1nc(Nc2ncc(C(=O)Nc3c(C)cccc3Cl)s2)cc(N2CCN(CCO)CC2)n1
OSI-906 (2 µM): C[C@]1(O)C[C@@H](c2nc(-c3ccc4ccc(-c5ccccc5)nc4c3)c3c(N)nccn32)C1
midostaurin (0.4 µM): CO[C@@H]1[C@H](N(C)C(=O)c2ccccc2)C[C@H]2O[C@]1(C)n1c3ccccc3c3c4c(c5c6ccccc6n2c5c31)C(=O)NC4
lapatinib (4 µM): CS(=O)(=O)CCNCc1ccc(-c2ccc3ncnc(Nc4ccc(OCc5cccc(F)c5)c(Cl)c4)c3c2)o1
VX-702 (2 µM): NC(=O)c1ccc(N(C(N)=O)c2c(F)cccc2F)nc1-c1ccc(F)cc1F
IMD-0354 (0.08 µM): O=C(Nc1cc(C(F)(F)F)cc(C(F)(F)F)c1)c1cc(Cl)ccc1O
U73122 (2 µM): COc1ccc2c(c1)CCC1C2CCC2(C)C(NCCCCCCN3C(=O)C=CC3=O)CCC12 (stereo unspecified)
AS-252424 (5 µM): O=C1NC(=O)/C(=C/c2ccc(-c3ccc(F)cc3O)o2)S1
BMS-536924 (1 µM): Cc1cc(N2CCOCC2)cc2[nH]c(-c3c(NC[C@@H](O)c4cccc(Cl)c4)cc[nH]c3=O)nc12
decitabine (0.5 µM): Nc1ncn([C@H]2C[C@H](O)[C@@H](CO)O2)c(=O)n1
MK-1775 (0.1 µM): C=CCn1c(=O)c2cnc(Nc3ccc(N4CCN(C)CC4)cc3)nc2n1-c1cccc(C(C)(C)O)n1
A-769662 (10 µM): N#Cc1c(O)c2c(-c3ccc(-c4ccccc4O)cc3)csc2[nH]c1=O
RKI-983 (2 µM): C[C@@H](N)c1ccc(C(=O)Nc2ccnc3[nH]ccc23)cc1
PF-562271 (0.4 µM): CN(c1ncccc1CNc1nc(Nc2ccc3c(c2)CC(=O)N3)ncc1C(F)(F)F)S(C)(=O)=O
PLX4720 (0.4 µM): CCCS(=O)(=O)Nc1ccc(F)c(C(=O)c2c[nH]c3ncc(Cl)cc23)c1F
sunitinib (2 µM): CCN(CC)CCNC(=O)c1c(C)[nH]c(/C=C2\C(=O)Nc3ccc(F)cc32)c1C
etoposide (0.1 µM): COc1cc([C@@H]2c3cc4c(cc3[C@@H](O[C@@H]3O[C@@H]5CO[C@@H](C)O[C@H]5[C@H](O)[C@H]3O)[C@H]3COC(=O)[C@H]23)OCO4)cc(OC)c1O
lenalidomide (5 µM): Nc1cccc2c1CN(C1CCC(=O)NC1=O)C2=O (stereo unspecified)

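Human melanoma cells were exposed to two drugs together for 72 h in 1,536-well plates and read by automated microscopy after fixing and staining. Each value is the count of nuclei relative to DMSO-treated wells, in %, so that 100 equals the control. Every drug was used at one fixed concentration, the higher of two screened. These are primary screening values without error estimates.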 Only some of the drugs and lines screened are listed, without regard to their results. An entry leaves out what has no value listed here. A dash means that no value is listed here.

Pair,G-361,C32,WM451Lu,A2058,COLO 829,A101D,501mel,COLO 800,A375,IPC-298,WM3619,COLO 792
etoposide + BMS-536924,-,90.7,-,-,-,-,-,-,-,-,-,-
RKI-983 + lapatinib,-,-,81.2,-,-,-,-,-,-,-,60.7,40.2
PF-562271 + etoposide,-,54.7,43.0,-,64.0,-,-,57.4,-,-,56.2,83.4
lapatinib + VX-702,-,-,-,-,-,-,-,-,-,-,-,52.5
PLX4720 + RKI-983,-,61.6,38.6,79.1,73.7,57.2,-,121,87.6,-,77.4,73.4
dasatinib + erlotinib,-,81.4,-,-,47.2,-,-,64.9,-,-,-,34.1
OSI-906 + sunitinib,-,-,61.9,-,-,-,-,-,-,-,57.7,-
BMS-536924 + vincristine,-,47.5,-,-,73.2,-,-,50.0,-,-,-,45.0
VX-702 + sunitinib,-,-,-,-,-,-,-,-,-,-,-,54.6
etoposide + U73122,-,68.8,102,-,-,-,-,-,-,-,49.0,-
IMD-0354 + midostaurin,-,-,82.5,-,-,-,-,-,-,-,72.8,59.3
midostaurin + lenalidomide,-,-,-,-,-,-,-,-,-,-,-,76.2
vincristine + U73122,-,-,29.9,-,-,-,-,-,-,-,67.3,-
RKI-983 + decitabine,-,62.0,77.4,47.6,64.3,67.9,-,81.1,94.1,-,65.1,59.0
dasatinib + sunitinib,-,64.1,-,-,71.0,-,-,38.2,-,-,-,37.6
PF-562271 + RKI-983,-,47.4,60.7,57.4,48.6,46.2,-,49.2,73.3,-,66.4,53.5
A-769662 + PF-562271,-,91.7,77.3,-,-,-,-,-,-,-,86.4,-
OSI-906 + PF-562271,-,69.0,78.8,-,49.2,-,-,51.3,-,-,73.2,61.1
AS-252424 + U73122,72.5,62.5,-,66.1,83.5,72.9,72.4,61.1,86.7,77.7,-,82.6
RKI-983 + lenalidomide,-,75.7,63.8,73.3,118,63.7,-,82.1,134,-,72.6,67.2
MK-1775 + RKI-983,-,76.9,-,59.2,86.0,40.0,-,51.0,51.9,-,-,58.4

Repeated from the top, 2 entries:

{"pair": "etoposide + BMS-536924", "C32": 90.7}
{"pair": "RKI-983 + lapatinib", "WM451Lu": 81.2, "WM3619": 60.7, "COLO 792": 40.2}